No constants are given. Whether binding was seen depends on the method and setting.

Amino acid sequences for entries named in this document (tags omitted). Residues count along the entry.
UniProt P0A6F9: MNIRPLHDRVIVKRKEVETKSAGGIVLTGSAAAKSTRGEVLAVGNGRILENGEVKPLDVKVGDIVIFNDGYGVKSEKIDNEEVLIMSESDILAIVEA
UniProt P10809, residues 27-573: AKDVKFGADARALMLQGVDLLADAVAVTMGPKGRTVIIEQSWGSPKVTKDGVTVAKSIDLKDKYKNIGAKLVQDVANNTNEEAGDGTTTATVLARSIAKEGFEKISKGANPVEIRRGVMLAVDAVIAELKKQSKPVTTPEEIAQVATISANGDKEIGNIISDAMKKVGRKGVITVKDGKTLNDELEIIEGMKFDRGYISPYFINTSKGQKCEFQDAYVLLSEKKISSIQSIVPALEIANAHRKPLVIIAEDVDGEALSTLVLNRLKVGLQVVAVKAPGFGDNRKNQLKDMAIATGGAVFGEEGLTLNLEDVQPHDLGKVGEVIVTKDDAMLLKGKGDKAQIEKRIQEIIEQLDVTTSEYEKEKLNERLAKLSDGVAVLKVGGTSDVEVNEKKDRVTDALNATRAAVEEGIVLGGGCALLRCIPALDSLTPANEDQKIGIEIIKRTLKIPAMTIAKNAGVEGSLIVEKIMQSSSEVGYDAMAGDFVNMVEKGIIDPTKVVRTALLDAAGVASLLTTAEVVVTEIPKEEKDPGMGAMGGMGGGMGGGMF

These results are taken from publication PMC3514286.

The experiment addresses GroES (E. coli) (UniProt P0A6F9). The experiment can be described thus: SPR; ProteOn XPR36; GroES or mHsp10 immobilised by amine coupling on a GLC chip; six concentrations of each mHsp60 variant injected; 20 mM Na-HEPES pH 7.5, 100 mM KCl, 10 mM MgCl2, 0.005% Tween, 2 mM ATP; apparent constants from equilibrium analysis; both purified.

In the case of “human mitochondrial Hsp60, wild type (from UniProt P10809 27-573)”, the binding entry is “no binding (tested: 10 µM)”.
